Counter-ions that a name gives are not always drawn. The list shows a part of the results. This data set is noisy: repeats of one test often differ as much as different tests do.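 The human kidney-derived cells carry a stably integrated construct of eight TEAD-binding elements driving luciferase, read by luminescence in a drug-repurposing library screen. A compound counts as a hit when its signal is more than five robust Z scores above the plate mean.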

The results in this text go back to the supplement of paper PMC10735217.

In this test the test system is HEK293A TEAD-LUC reporter. The test is described as follows: TEAD-luciferase reporter activity (YAP activation), robust Z score vs plate; higher = stronger YAP/TEAD activation. Conditions: 24 h.

On to `O=C(CC1CCN(CCn2c(=O)[nH]c3ccccc3c2=O)C1)c1ccc(F)cc1` (centres undefined), for which the TEAD-luciferase reporter activity runs as follows: (compound concentration: 200 nM) inactive: -0.839; (compound concentration: 2 uM) inactive: -0.186; (compound concentration: 10 uM) inactive: 1.9.
The corresponding values for `Nc1ccc2c(c1)C(=O)NC(CCCl)O2` (centres undefined) are inactive: -1.66, inactive: -0.577 and inactive: -1.95.
Taken in the same sequence, the figures for `CC[N+](CC)(CC)CCOc1cccc(OCC[N+](CC)(CC)CC)c1OCC[N+](CC)(CC)CC` [Gallamine triethiodide (Flaxedil)] were inactive: -1.91, inactive: 1.09 and inactive: 0.976.
Taken in the same sequence, the figures for `CS(=O)(=O)c1cccc(C[C@H](NC(=O)c2c(Cl)cc3c(c2Cl)CCN(C(=O)c2ccc4ccoc4c2)C3)C(=O)O)c1` [lifitegrast] were inactive: 2.78, inactive: -0.104 and inactive: -1.24.
In the case of `COc1ccc(OC2CN(Cc3ccc(C(F)(F)F)cc3)C2)cc1`, the TEAD-luciferase reporter activity was inactive: -0.463 (compound concentration: 200 nM) and inactive: -0.0388 (compound concentration: 10 uM).
Take `Cc1cnc2c(c1)nc(C1CCCCC1)n2Cc1ccc(C(=O)O)cc1`: the TEAD-luciferase reporter activity (compound concentration: 200 nM) is inactive: -0.804, the TEAD-luciferase reporter activity (compound concentration: 2 uM) is inactive: -0.838 and the TEAD-luciferase reporter activity (compound concentration: 10 uM) was inactive: -1.03.
As for `Cc1cc(C)cc(-c2ccc(CN3CCCC3C(=O)NCC3CC3)cc2)c1` (centres undefined), the TEAD-luciferase reporter activity is inactive: -2.51 (compound concentration: 200 nM) and inactive: 0.605 (compound concentration: 10 uM).
As for `O=C1CC2(CCCC2)CC(=O)N1CCNCC1COc2ccccc2O1` (centres undefined) [Binospirone mesylate], the TEAD-luciferase reporter activity (compound concentration: 2 uM) is inactive: 0.885.
As to `O=C1CC2(CCCC2)CC(=O)N1CCNCC1COc2ccccc2O1` (centres undefined), the TEAD-luciferase reporter activity is inactive: 2.48 (compound concentration: 200 nM) and inactive: 1.43 (compound concentration: 10 uM).
Consider `CCCCOC(=O)C(=O)Nc1cccc(-c2nnn[nH]2)c1`, for which the TEAD-luciferase reporter activity was inactive: -1.55 (compound concentration: 200 nM), inactive: -1.24 (compound concentration: 2 uM) and inactive: -0.288 (compound concentration: 10 uM).
Consider `CN(NC(=O)c1ccc(Cl)c(S(N)(=O)=O)c1)c1ccccc1` [metipamide], for which the TEAD-luciferase reporter activity runs as follows: (compound concentration: 200 nM) inactive: -0.843; (compound concentration: 2 uM) inactive: 0.098; (compound concentration: 10 uM) inactive: 1.1.
As to `Cc1cc(C)c2cccc(OCc3c(Cl)ccc(S(=O)(=O)N4CCC[C@H]4C(=O)NCCCNC(=O)c4ccc(C(=N)N)cc4)c3Cl)c2n1`, the TEAD-luciferase reporter activity (compound concentration: 200 nM) is inactive: -0.425, the TEAD-luciferase reporter activity (compound concentration: 2 uM) was inactive: -0.194 and the TEAD-luciferase reporter activity (compound concentration: 10 uM) was inactive: 1.45.
With `O=C1NCc2ccccc2CC12CCCN2Cc1ccc(F)cc1F` (centres undefined), the TEAD-luciferase reporter activity was inactive: 0.322 (compound concentration: 200 nM) and inactive: 0.556 (compound concentration: 10 uM).
As for `CCCCOC(=O)CN1CCC(NC(=O)c2cc(Cl)c(N)cc2OC)CC1`, the TEAD-luciferase reporter activity reads like this: (compound concentration: 200 nM) inactive: -1.28; (compound concentration: 2 uM) inactive: -0.313; (compound concentration: 10 uM) inactive: 0.364.
Turning to `CC12CCC(C(C(=O)O)C1=O)C2(C)C` (centres undefined), the TEAD-luciferase reporter activity reads like this: (compound concentration: 200 nM) inactive: -0.667; (compound concentration: 2 uM) inactive: -0.933; (compound concentration: 10 uM) inactive: 0.903.
Consider `CC(C)OC(=O)N1CCC(C)(N2CCC(N3C(=O)N[C@H]4CCCC[C@@H]43)CC2)CC1` [a possible structure for AZD-6088], for which the TEAD-luciferase reporter activity (compound concentration: 200 nM) was inactive: 0.578, the TEAD-luciferase reporter activity (compound concentration: 2 uM) is inactive: -0.187 and the TEAD-luciferase reporter activity (compound concentration: 10 uM) is inactive: 0.271.
Taken in the same sequence, the figures for `Nc1ncnc2c1ncn2C1OC(CO)CC1O` (centres undefined) [cordycepin, OXiGENE] were inactive: -0.837, inactive: -1.75 and inactive: -1.91.
Take `CC1(C)CC(=O)c2c(SCCO)sc(-c3nccs3)c2C1`: the TEAD-luciferase reporter activity is, setting by setting: (compound concentration: 200 nM) inactive: -0.244; (compound concentration: 2 uM) inactive: -0.778; (compound concentration: 10 uM) inactive: -0.358.
The corresponding values for `O=C1CCC(C(=O)N2CCCCC2)N1` (centres undefined) [Fasoracetam] are inactive: -0.606, inactive: -0.716 and inactive: 0.41.
Taken in the same sequence, the figures for `COc1cc(C(=O)N(C(C)C)C(C)C)ccc1OCCCCOc1ccc2c(N)noc2c1` were inactive: -0.887, inactive: -0.423 and inactive: -1.46.
The corresponding values for `CC(C)N1CCN(C(C)C)C(=C2NCCN2)C1` are inactive: -2.15, inactive: 0.668 and inactive: 0.628.
`CNCC(O)C(O)C(O)C(O)CO` (centres undefined) [etodolac meglumine]: the TEAD-luciferase reporter activity is inactive: 0.613 (compound concentration: 200 nM) and inactive: 0.313 (compound concentration: 10 uM).
`CNCC(O)C(O)C(O)C(O)CO` (centres undefined) [meglumine]: the TEAD-luciferase reporter activity (compound concentration: 2 uM) is inactive: -1.21.
For the molecule `O=C(O)CCCCc1cn(-c2ccccn2)c2ccccc12`, the TEAD-luciferase reporter activity by setting is: (compound concentration: 200 nM) inactive: -2.1; (compound concentration: 10 uM) inactive: 0.572.
As for `CN(C)CC/C=C1/c2ccccc2Sc2ccc(Cl)cc21` [Chlorprothixene], the TEAD-luciferase reporter activity (compound concentration: 200 nM) was inactive: 0.674, the TEAD-luciferase reporter activity (compound concentration: 2 uM) is inactive: -0.887 and the TEAD-luciferase reporter activity (compound concentration: 10 uM) is inactive: 0.588.
Turning to `COc1cc(/C=C/C(=O)CC(C)=O)ccc1O`, where the note is “compound concentration: 2 uM”, the TEAD-luciferase reporter activity was inactive: -0.308.
In the case of `COc1cccc(C(=O)NC2CCN(C(=O)c3ccc(-c4ccccc4OC)cc3)CC2)c1`, the TEAD-luciferase reporter activity was inactive: 2.01 (compound concentration: 200 nM) and inactive: 1.8 (compound concentration: 10 uM).
Turning to `CNc1nc(-c2cccc(NC(=O)c3ccc(C(=O)OC)cc3)c2)c2cc(OC)c(OC)cc2n1`, the TEAD-luciferase reporter activity reads like this: (compound concentration: 200 nM) inactive: -0.469; (compound concentration: 2 uM) inactive: -1.23; (compound concentration: 10 uM) inactive: -1.49.
On to `CC(C)Cn1ncc2cc(Oc3ccc(F)cc3F)c(C(=O)NCCN(C)C)cc21`, for which the TEAD-luciferase reporter activity was inactive: -1.51 (compound concentration: 200 nM), inactive: -0.72 (compound concentration: 2 uM) and inactive: 0.687 (compound concentration: 10 uM).
